Experimental data taken from paper PMC6277997.
These are yes or no findings as the source states them, for the method shown. In cells and extracts the contact can be indirect. Some results given as binding are weak or reduced against the parent protein; the word gives no strength.

Target: T1, DMTN core domain (226-336aa) (human) (UniProt Q08495)
T1 sequence: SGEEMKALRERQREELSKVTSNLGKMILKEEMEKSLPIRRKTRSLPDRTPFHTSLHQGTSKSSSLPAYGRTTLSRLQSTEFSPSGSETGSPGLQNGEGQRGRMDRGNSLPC
Experiment: pull-down; GST pull-down; purified GST fusion proteins used as bait; DMTN core domain with an HA tag, ARHGEF2 DH domain with a flag tag

B1: ARHGEF2 DH domain (domain or fragment, UniProt Q92974 235-432)
chain: KQQDVIYELIQTELHHVRTLKIMTRLFRTGMLEELHLEPGVVQGLFPCVDELSDIHTRFLSQLLERRRQALCPGSTRNFVIHRLGDLLISQFSGPSAEQMCKTYSEFCSRHSKALKLYKELYARDKRFQQFIRKVTRPAVLKRHGVQECILLVTQRITKYPLLISRILQHSHGIEEERQDLTTALGLVKELLSNVDEG
Question: Which binding does the source give for B1 here?
Answer: Its binding is “binds”.
